# Cleaved PARP after 72 h of treatment

Drug key:
PF-562271 (0.4 µM): CN(c1ncccc1CNc1nc(Nc2ccc3c(c2)CC(=O)N3)ncc1C(F)(F)F)S(C)(=O)=O
vismodegib (5 µM): CS(=O)(=O)c1ccc(C(=O)Nc2ccc(Cl)c(-c3ccccn3)c2)c(Cl)c1
GSK650394 (0.8 µM): O=C(O)c1ccc(-c2c[nH]c3ncc(-c4ccccc4)cc23)cc1C1CCCC1
nilotinib (1 µM): Cc1cn(-c2cc(NC(=O)c3ccc(C)c(Nc4nccc(-c5cccnc5)n4)c3)cc(C(F)(F)F)c2)cn1
bortezomib (0.005 µM): CC(C)C[C@H](NC(=O)[C@H](Cc1ccccc1)NC(=O)c1cnccn1)B(O)O
MK-1775 (0.1 µM): C=CCn1c(=O)c2cnc(Nc3ccc(N4CCN(C)CC4)cc3)nc2n1-c1cccc(C(C)(C)O)n1
SNS-032 (0.05 µM): CC(C)(C)c1cnc(CSc2cnc(NC(=O)C3CCNCC3)s2)o1
temozolomide (10 µM): Cn1nnc2c(C(N)=O)ncn2c1=O

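Human melanoma cells were exposed to two drugs together for 72 h in 1,536-well plates and read by automated microscopy after fixing and staining. Values are the share of nuclei positive for cleaved PARP as a percentage of the same share in the DMSO control: 100 is the control level, higher means more apoptosis. Concentrations were fixed for each drug; these are the higher of two levels. The file gives one value for each pair and line, without errors, so small differences may be noise. The marker varies much from line to line, for technical or biological reasons.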 An unselected part of the screen is shown.

Drugs	MeWo	RPMI-7951	WM115	LB2518-MEL	WM1716	COLO 800	IPC-298	IST-MEL1	MZ2-MEL	SK-MEL-2
bortezomib + nilotinib	2120	2130	2280	1200	11800	98.8	3120	1450	9070	148
PF-562271 + SNS-032	166	211	139	150	120	146	35.6	58.5	347	274
GSK650394 + MK-1775	105	79.2	114	121	18.5	265	614	80.6	32.5	146
MK-1775 + nilotinib	126	24.8	232	104	428	48.2	38.3	49.7	87.0	155
SNS-032 + MK-1775	143	139	247	103	161	104	134	99.6	222	157
SNS-032 + nilotinib	185	94.3	152	168	117	32.1	94.1	107	98.3	99.4
vismodegib + MK-1775	159	187	64.2	176	95.9	83.9	28.6	45.7	131	239
PF-562271 + vismodegib	82.8	274	140	98.0	166	211	34.7	102	188	156
nilotinib + temozolomide	65.7	131	260	184	493	130	189	43.0	96.6	147
temozolomide + GSK650394	93.6	1210	149	120	1010	136	84.2	58.9	72.6	114
bortezomib + GSK650394	1990	554	1500	2200	782	232	916	201	14200	322
GSK650394 + vismodegib	127	26.5	43.7	42.7	182	85.6	35.2	49.8	67.9	162
SNS-032 + temozolomide	213	83.1	105	56.5	648	125	70.0	604	119	157
vismodegib + bortezomib	1310	1020	3610	6150	13000	86.4	5930	260	16300	194
PF-562271 + bortezomib	2380	1640	4390	2390	13100	269	6160	511	25000	271
GSK650394 + SNS-032	153	167	75.0	177	131	127	39.2	120	181	298
nilotinib + vismodegib	35.2	98.8	77.1	73.6	26.6	97.9	130	75.1	57.1	149
nilotinib + PF-562271	63.8	133	224	193	178	186	92.3	163	103	144
vismodegib + temozolomide	93.8	72.4	129	80.7	209	83.0	273	168	102	76.0
bortezomib + SNS-032	2700	1180	1200	2400	10200	443	6300	209	17600	236
MK-1775 + PF-562271	60.3	141	229	45.0	16.1	224	107	56.4	133	131
vismodegib + SNS-032	58.3	84.7	46.3	86.2	35.1	243	84.3	61.6	191	216

For reference, 2 entries once more:

| Drugs | MeWo | RPMI-7951 | WM115 | LB2518-MEL | WM1716 | COLO 800 | IPC-298 | IST-MEL1 | MZ2-MEL | SK-MEL-2 |
|---|---|---|---|---|---|---|---|---|---|---|
| bortezomib + SNS-032 | 2700 | 1180 | 1200 | 2400 | 10200 | 443 | 6300 | 209 | 17600 | 236 |
| MK-1775 + nilotinib | 126 | 24.8 | 232 | 104 | 428 | 48.2 | 38.3 | 49.7 | 87.0 | 155 |

Data from the primary screen of doi:10.1371/journal.pone.0140310, rounded.